Patent US11523610B2, “Regulating plant growth using a diapocarotenoid” (King Abdullah University of Science and Technology, priority 2018, dated 2022)

Experiment: LC-MS quantification of anchorene in Arabidopsis tissues
Description: About 30 mg (30-40 mg) of freeze-dried and ground Arabidopsis seedlings tissues were extracted using 1 mL of acetonitrile with anti-oxidant [0.1% butylated hydroxytoluene (BHT)] for 15 min in an ultrasonic bath (Branson® 5510EDTH, 25° C., 15 min), followed by centrifugation for 8 min at 13000 rpm at 4° C. The collected supernatant was dried using a concentrator (Labconco RapidVap® System). The extract was derivatized (SCHEME 3) with 50 μL of derivatization solution containing 5 mg/mL derivatization reagent (N^2,N^2,N^4,N^4-tetraethyl-6-hydrazineyl-1,3,5-triazine-2,4-diamine) (Chemspace) and 1% formic acid in methanol at 37° C. for 15 min. Then the sample solution was diluted to 150 μL with 1% formic acid in methanol and filtered by using 0.22 μm filter before LC-MS analysis.
The quantitative analysis of derivative anchorene were carried out on HPLC-Q-Trap MS/MS. Chromatographic separation was achieved on an Acquity UPLC CSH C18 column (50×2.1 mm; 1.7 μm; Waters) using a mobile phase consisting of water: acetonitrile (95:5, v:v, A) and pure acetonitrile (B), both containing 0.1% formic acid. A gradient was applied, starting with 10% B and increasing to 40% B over 5 min. Then 15% B was increased
within 10 min followed by an increase of 45% B over 2 min. And then 100% B was maintained for 10 min. To equilibrate the column before the next run, the mobile phase was adjusted back to 10% B in 1 min and this concentration was maintained for 8 min prior to the next sample injection. A flow rate of 0.15 mL/min and a column temperature of 40° C. were maintained throughout the run. The eluent of the column was introduced to the mass spectrometer using turbo spray ion source in positive mode. The injection volume was 10 μL. The conditions of the mass spectrometer were set as following: curtain gas: 30; ion spray voltage: 5 kV; temperature: 400° C.; ion source gas 1: 30; ion source gas 2: 40; declustering potential, 55; entrance potential: 10; collision energy: 25; collision cell exit potential: 10. […]

C\C(C=O)=C/C=C/C=C(\C)C=O [anchorene, 12,12′-diapocarotene-12,12′-dial]
endogenous anchorene content in root tissues (12-day-old seedlings, root): 0.02±0.001 pmol/mg dry weight | endogenous anchorene content in shoot tissues (12-day-old seedlings, shoot): 0.08±0.003 pmol/mg dry weight | anchorene content shoot versus root (shoot higher than root): about 4 fold
